To fix the notation:
B1: NB194-P29-z1 (Fc fusion, not shown: a dimerising Fc or GST)
heavy: QVQLVESGGGLVQPGGSLRLSCSASGHSFSIYDMGWFRQAADKERESVAVINFGRGTTYYAESVKGRFTISRDNAKNTVYLQMNSLRAEDTAVYSCGIDRRQYGLGIPPLADHWGQGSQVTVSS
B2: NB194-P29-z3 (Fc fusion, not shown: a dimerising Fc or GST)
heavy: B1 heavy with R19T
B3: NB194-P29-z2 (Fc fusion, not shown: a dimerising Fc or GST)
heavy: B1 heavy with V2L
B4: NB194-P29-z9 (Fc fusion, not shown: a dimerising Fc or GST)
heavy: B1 heavy with H27F, S28T
B5: NB194-P29-z5 (Fc fusion, not shown: a dimerising Fc or GST)
heavy: B1 heavy with A41P
B6: NB194-P29-z4 (Fc fusion, not shown: a dimerising Fc or GST)
heavy: B1 heavy with S23T
B7: NB194-P29-z6 (Fc fusion, not shown: a dimerising Fc or GST)
heavy: B1 heavy with D42G
B8: NB194-P29-z7 (Fc fusion, not shown: a dimerising Fc or GST)
heavy: B1 heavy with R72L
B9: NB194-P29-z8 (Fc fusion, not shown: a dimerising Fc or GST)
heavy: B1 heavy with A41P, D42G
B10: NB194-P29-z10 (Fc fusion, not shown: a dimerising Fc or GST)
heavy: B1 heavy with Q1E, V2L, S23A
B11: NB182-z1 (Fc fusion, not shown: a dimerising Fc or GST)
heavy: EVQLVESGGGLVQPGGSLRLSCSASGDTSFISAAGWYRQAPGKERELVSAITNTGITYYPDSVKGRFTISRDNSKNTVYLQMNSLRAEDTAVYYCNAGAPPPGGLGYDESDYWGQGTQVTVSS

Protein sequences, listed by entry. Tags and fused reporters are not part of them. Residues count along the entry.
UniProt Q15116, residues 25-170: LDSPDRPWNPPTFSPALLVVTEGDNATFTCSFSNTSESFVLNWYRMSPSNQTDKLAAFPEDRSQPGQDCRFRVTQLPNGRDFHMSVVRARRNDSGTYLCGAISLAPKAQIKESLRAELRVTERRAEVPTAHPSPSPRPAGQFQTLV

Numbering of substitutions follows the chain as printed. No constants are given. Whether binding was seen depends on the method and setting. Some entries that bind do so weakly or less than the wild type.

This passage reports binding results from patent EP4269437A1.

One experiment deals with PD-1 (UniProt Q15116). Put plainly: SPR; set-up and antigen form not restated. (In general: Surface plasmon resonance follows binding to a sensor surface in real time, without labels.)
Turning to B1, the binding entry is given as “binds”.
Same read-out and setting: with B2 the entry was “binds”; with B3, “binds”; with B4, “binds”.
For B5, the binding entry is given as “binds”.
The same measure, in the same setting: with B6 the entry was “binds”; with B7, “binds”; with B8, “binds”.
On the same count and under the same terms, with B9 the entry was “binds”.
For the molecule B10, the binding result is on record as “binds”.

In the next experiment the target is PD-1.His (UniProt Q15116). The experiment in a line: SPR, antibody captured on protein A, PD-1.His in flow.
With B11, the binding result is on record as “binds”.
